# Results as given in patent publication US7579150B1, “Mobile RNA acts as a signal to regulate plant growth and development” (Iowa State University Research Foundation, Inc., priority 2004, dated 2009).
# No constants are given. Whether binding was seen depends on the method and setting. For some assays here: Binding seen in cells or lysates may run through a third protein. Some results given as binding are weak or reduced against the parent protein; the word gives no strength. Sequences can lack the tags named with a protein.
# T1: GAD:POTH1 fusion protein (full-length POTH1 fused to the GAL4 activation domain) (Solanum tuberosum)
# T1 sequence (chain, 35S-methionine labelled (in vitro translation)): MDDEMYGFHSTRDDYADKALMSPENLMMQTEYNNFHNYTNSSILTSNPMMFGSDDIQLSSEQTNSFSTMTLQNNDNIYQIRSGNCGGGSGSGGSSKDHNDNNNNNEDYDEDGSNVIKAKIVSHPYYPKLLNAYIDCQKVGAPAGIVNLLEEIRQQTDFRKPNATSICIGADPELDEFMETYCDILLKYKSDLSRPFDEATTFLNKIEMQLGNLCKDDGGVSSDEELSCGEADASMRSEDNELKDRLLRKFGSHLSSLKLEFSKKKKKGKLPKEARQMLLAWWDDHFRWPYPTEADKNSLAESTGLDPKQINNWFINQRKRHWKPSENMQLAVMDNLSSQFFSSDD
# Key:
# [1] = molecular target: T1, GAD:POTH1 fusion protein (full-length POTH1 fused to the GAL4 activation domain) (Solanum tuberosum); experiment: co-immunoprecipitation of in vitro translated 35S-labelled proteins with anti-GAD antibodies, SDS-PAGE and autoradiography
# [2] = molecular target: T1, GAD:POTH1 fusion protein (full-length POTH1 fused to the GAL4 activation domain) (Solanum tuberosum); experiment: immunoprecipitation of in vitro transcribed/translated proteins
binder,measurement,setting,value
"StBEL-05 protein synthesized in vitro from pGEM11Z (other, 35S-methionine labelled (in vitro translation), BEL cDNA cloned into pGEM11Z under the T7 promoter; also called p11Z-5) MYYQGTSDNTNIQADHQQRHNHGNSNNNNIQTLYLMNPNNYMQGYTTSDTQQQQQLLFLNSSPAASNALCHANIQHAPLQQQHFVGVPLPAVSLHDQINHHGLLQRMWNNQDQSQQVIVPSSTGVSATSCGGITTDLASQLAFQRPIPTPQHRQQQQQQGGLSLSLSPQLQQQISFNNNISSSSPRTNNVTIRGTLDGSSSNMVLGSKYLKAAQELLDEVVNIVGKSIKGDDQKKDNSMNKESMPLASDVNTNSSGGGESSSRQKNEVAVELTTAQRQELQMKKAKLLAMLEEVEQRYRQYHHQMQIIVLSFEQVAGIGSAKSYTQLALHAISKQFRCLKDAIAEQVKATSKSLGEEEGLGGKIEGSRLKFVDHHLRQQRALQQIGMMQPNAWRPQRGLPERAVSVLRAWLFEHFLHPYPKDSDKIMLAKQTGLTRSQVSNWFINARVRLWKPMVEEMYLEEVKNQEQNSTNTSGDNKNKETNISAPNEEKHPIITSSLLQDGITTTQAEISTSTISTSPTAGASLHHAHNFSFLGSFNMDNTTTTVDHIENNAKKQRNDMHKFSPSSILSSVDMEAKARESSNKGFTNPLMAAYAMGDFGRFDPHDQQMTANFHGNNGVSLTLGLPPSENLAMPVSQQNYLSNDLGSRSEMGSHYNRMGYENIDFQSGNKRFPTQLLPDFVTGNLGT",binding,[1],binds
same,binding,[2],binds
